Laboratory results as given in publication PMC9113592.
These are yes or no findings as the source states them, for the method shown. In cells and extracts the contact can be indirect. Here binding means that the protein was enriched with, or labelled near, the bait; the list need not be complete.

Protein sequences, listed by entry. Tags and fused reporters are not part of them. Lines headed by an entry give the natural chain unless they say otherwise; changes in a name come on top.
UniProt Q38BC5: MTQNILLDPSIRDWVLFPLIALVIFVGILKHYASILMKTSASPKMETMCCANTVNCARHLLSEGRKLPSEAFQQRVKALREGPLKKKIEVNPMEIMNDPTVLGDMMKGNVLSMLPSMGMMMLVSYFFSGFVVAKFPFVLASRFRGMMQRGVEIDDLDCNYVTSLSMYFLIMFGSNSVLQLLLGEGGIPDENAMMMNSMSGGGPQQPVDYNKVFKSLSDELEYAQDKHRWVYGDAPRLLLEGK
UniProt Q580G6: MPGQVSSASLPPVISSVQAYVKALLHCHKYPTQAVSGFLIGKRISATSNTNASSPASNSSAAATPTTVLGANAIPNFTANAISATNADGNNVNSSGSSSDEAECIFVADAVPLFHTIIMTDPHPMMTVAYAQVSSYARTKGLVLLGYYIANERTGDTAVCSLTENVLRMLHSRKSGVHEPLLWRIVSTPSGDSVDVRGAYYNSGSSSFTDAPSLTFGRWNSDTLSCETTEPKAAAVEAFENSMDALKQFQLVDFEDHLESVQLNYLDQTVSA
UniProt Q388W2: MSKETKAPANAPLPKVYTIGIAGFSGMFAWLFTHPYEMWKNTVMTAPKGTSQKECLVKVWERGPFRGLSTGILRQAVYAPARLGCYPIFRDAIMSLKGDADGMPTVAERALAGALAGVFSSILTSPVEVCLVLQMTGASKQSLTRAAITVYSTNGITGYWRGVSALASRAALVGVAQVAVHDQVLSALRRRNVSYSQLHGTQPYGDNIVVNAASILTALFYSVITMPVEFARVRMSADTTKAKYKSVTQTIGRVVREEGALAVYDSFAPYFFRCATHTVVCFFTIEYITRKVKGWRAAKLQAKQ
UniProt Q382D5: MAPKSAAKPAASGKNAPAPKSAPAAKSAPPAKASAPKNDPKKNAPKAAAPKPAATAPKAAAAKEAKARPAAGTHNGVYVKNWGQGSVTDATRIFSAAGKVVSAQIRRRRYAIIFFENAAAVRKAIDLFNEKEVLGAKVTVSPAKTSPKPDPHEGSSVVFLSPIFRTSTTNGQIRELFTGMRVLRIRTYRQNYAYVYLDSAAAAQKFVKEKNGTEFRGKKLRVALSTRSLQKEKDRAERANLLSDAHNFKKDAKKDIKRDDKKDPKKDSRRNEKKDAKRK
UniProt Q57WZ3: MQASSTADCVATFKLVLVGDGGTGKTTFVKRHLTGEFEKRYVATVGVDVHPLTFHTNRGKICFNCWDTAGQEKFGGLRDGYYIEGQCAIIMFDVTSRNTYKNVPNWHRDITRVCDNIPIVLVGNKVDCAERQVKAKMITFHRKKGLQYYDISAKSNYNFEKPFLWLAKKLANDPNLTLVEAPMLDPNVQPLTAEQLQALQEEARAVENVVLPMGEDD
UniProt Q38EX8: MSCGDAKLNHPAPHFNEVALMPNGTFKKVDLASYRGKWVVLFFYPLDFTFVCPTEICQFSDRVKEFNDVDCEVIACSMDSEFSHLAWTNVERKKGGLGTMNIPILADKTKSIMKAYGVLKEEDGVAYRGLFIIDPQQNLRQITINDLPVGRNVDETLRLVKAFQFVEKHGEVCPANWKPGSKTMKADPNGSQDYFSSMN

B1: glycosomal membrane protein GIM5B (protein, UniProt Q9N9C9 1-241)
chain: MSAQAHTYLCDAWNRDKVMAIVQFLPMALEGPARTAGCESLALSLGNLARMGDAYRAVTRLSLLANALSKPTLTSLSKPAGDMVASRIDQLSHLFHIGFCLNENTAVLAGHGVFPKSLHRLSGVAVLCWMYTLVLGIVRQLYMLSKMRGHCTAAAASGDDKRKTCPYGGCKRVMVDLLKLVCYFLFALTCLPEGKPQLLANASGPLVPLHVMVKALSPNPLHASNTVRGLLGLIASVCEFY

Columns and labels:
[1] = target: TbEMC3-HA (Trypanosoma brucei) (UniProt Q38BC5); assay: affinity purification with mass spectrometry; parasites cross-linked in 0.1% paraformaldehyde in PBS for 8 min at room temperature, glycine 125 mM; lysed and immunoprecipitated as for the co-IP, beads washed with lysis buffer lacking detergent; MS of the TbEMC3-HA and TbEMC5-cMyc immunoprecipitates
[2] = target: TbEMC5-cMyc (Trypanosoma brucei); assay: as above

| Molecule | binding [1] | binding [2] |
| --- | --- | --- |
| TbEMC8 (from UniProt Q580G6) | binds |  |
| mitochondrial carrier protein MCP12 (from UniProt Q388W2) | binds |  |
| nuclear RNA binding domain 2 (from UniProt Q382D5) | binds |  |
| putative GTP binding nuclear protein RTB2 (from UniProt Q57WZ3) | binds |  |
| putative histone H2B (from UniProt Q389T1) | binds |  |
| tryparedoxin peroxidase (from UniProt Q38EX8) (enzyme) | binds |  |
| B1 |  | binds |
